PubChem BioAssay AID602196, INSERM | 2012

Screen: 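Genes whose knock-down alters cisplatin killing of lung cancer cells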
Cell system: human A549 lung cancer cells
Knock-down reagent: siRNA pair against human genes
Time to read-out: 48 h transfection before cisplatin; time from cisplatin to read-out not stated
Conditions: cisplatin at a dose killing half of control-siRNA cells; exact dose and duration not given
Read-out: 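Shift in cisplatin death relative to control siRNA, from -50 (all cells die) to +50 (no cells die); siRNAs harmful on their own scored 0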
Scale: two-siRNA summed score (-2 to +2): higher = both siRNAs protect from cisplatin killing; -2 means both sensitise; mean protection from cisplatin (shift in death) and protection from cisplatin (shift in death), siRNA C and protection from cisplatin (shift in death), siRNA D: higher = protection from cisplatin killing
Call rule: 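siRNAs harmful alone (LDH or WST-1) get 0; others get +1 for less and -1 for more cisplatin killing; genes are active when the two siRNAs give the same sign, summing to ±2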
Meaning of the calls: active = both siRNAs shift cisplatin killing the same way; inactive = no consistent shift, or siRNA harmful alone
This is an unselected part of about 23,000 reagents. In the full data, 455 (2%) got an active call. 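Active includes both protection and sensitisation; some change values fall well beyond the stated -50 to +50 range.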 Not given: the amount of reagent.

target gene	PubChem SID	two-siRNA summed score (-2 to +2)	mean protection from cisplatin (shift in death) (%)	protection from cisplatin (shift in death), siRNA C (%)	protection from cisplatin (shift in death), siRNA D (%)	Call
LOC389069	SID131507733	0	0.2	-4.1	4.6	inactive
CHST2	SID131508091	0	0.6	5.5	-4.2	inactive
DCTN6	SID131522278	1	17.4	20.8	13.9	inactive
HOXB8	SID131517403	0	13.3	22.7	3.9	inactive
LOC340260	SID131513030	0	6.1	14.8	-2.5	inactive
LOC126037	SID131511236	0	4.1	-6.5	14.7	inactive
VCX	SID131518676	0	24	25.6	22.5	inactive
PPP6R1	SID131512568	0	5.6	9.8	1.4	inactive
LRRC59	SID131516684	0	11.4	11.9	11	inactive
ACOT12	SID131502039	-1	-5.7	7.3	-18.7	inactive
SULT1A2	SID131512951	0	6	8.5	3.6	inactive
SREBF1	SID131518360	0	18.7	11.8	25.6	inactive
FASTKD4	SID131522315	1	17.7	15.7	19.7	inactive
C6orf163	SID131517706	0	14.4	8.6	20.3	inactive
LOC389000	SID131518965	1	-0.8	-13.1	11.6	inactive
TPM2	SID131511769	0	4.7	1	8.4	inactive
FBXL17	SID131507910	0	0.4	-5.8	6.6	inactive
LHX5	SID131510249	0	3	-9.6	15.7	inactive
DGKH	SID131503106	0	-13.5	-19.5	-7.5	inactive
SERPINC1	SID131518399	0	19.1	-0.9	39.2	inactive
ATG101	SID131500953	-1	-13.9	-8	-19.8	inactive
SNX33	SID131506943	0	-0.8	-4	2.4	inactive
MNX1	SID131505850	0	-2.5	-9.9	5	inactive
ABCF2	SID131501764	-1	-7.5	3.8	-18.8	inactive
LOC388503	SID131518145	0	16.9	3.2	30.6	inactive
LOC440362	SID131517912	0	15.4	11.8	18.9	inactive
FST	SID131505172	0	-3.6	2.5	-9.7	inactive
TGM1	SID131510969	0	3.8	7.5	0.2	inactive
CYFIP1	SID131516542	0	11.1	18.9	3.2	inactive
LOC340549	SID131508111	0	0.6	10.6	-9.3	inactive
LOC441174	SID131508831	0	1.5	2.4	0.7	inactive
GRB10	SID131505889	0	-2.4	-12.1	7.3	inactive
SFPQ	SID131519444	1	5.6	0.3	10.9	inactive
SERPINB12	SID131512696	0	5.8	-6.5	18.1	inactive
ZNF112	SID131508177	0	0.7	7	-5.5	inactive
RPL11	SID131518726	0	25.2	26.4	24	inactive
SAMSN1	SID131514052	0	7.3	10.3	4.3	inactive
SAMSN1	SID131519822	1	7.6	19.1	-3.9	inactive
CYTH3	SID131501479	-1	-9.5	-3.1	-16	inactive

Targets above whose target name starts with F or f (3):
target gene	PubChem SID	two-siRNA summed score (-2 to +2)	mean protection from cisplatin (shift in death) (%)	protection from cisplatin (shift in death), siRNA C (%)	protection from cisplatin (shift in death), siRNA D (%)	Call
FASTKD4	SID131522315	1	17.7	15.7	19.7	inactive
FBXL17	SID131507910	0	0.4	-5.8	6.6	inactive
FST	SID131505172	0	-3.6	2.5	-9.7	inactive
